In the assay the target is Flag-tagged RABV phosphoprotein (P), full length (rabies virus) (UniProt P22363). In words: co-IP.

By UniProt entry, the sequences of proteins in these tests, tags left out.
UniProt P22363: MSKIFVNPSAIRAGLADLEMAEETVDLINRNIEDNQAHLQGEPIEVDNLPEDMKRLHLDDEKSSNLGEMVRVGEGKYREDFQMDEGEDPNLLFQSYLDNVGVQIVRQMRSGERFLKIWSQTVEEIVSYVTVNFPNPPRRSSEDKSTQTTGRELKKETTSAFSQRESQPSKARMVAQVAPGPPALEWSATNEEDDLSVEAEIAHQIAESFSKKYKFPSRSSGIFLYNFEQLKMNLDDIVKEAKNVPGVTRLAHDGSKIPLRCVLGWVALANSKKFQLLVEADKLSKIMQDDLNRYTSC
UniProt P60953: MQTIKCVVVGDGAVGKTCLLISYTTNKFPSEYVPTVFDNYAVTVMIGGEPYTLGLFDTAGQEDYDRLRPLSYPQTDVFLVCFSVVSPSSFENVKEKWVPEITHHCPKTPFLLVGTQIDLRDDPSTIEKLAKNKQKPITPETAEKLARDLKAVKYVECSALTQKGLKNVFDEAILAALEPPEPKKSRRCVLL
UniProt P61586: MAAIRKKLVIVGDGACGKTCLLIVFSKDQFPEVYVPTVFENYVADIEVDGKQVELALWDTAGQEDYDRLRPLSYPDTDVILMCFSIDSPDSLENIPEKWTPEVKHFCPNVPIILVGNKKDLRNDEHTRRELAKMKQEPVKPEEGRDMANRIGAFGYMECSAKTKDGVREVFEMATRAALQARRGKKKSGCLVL

No constants are given. Whether binding was seen depends on the method and setting. Binding seen in cells or lysates may run through a third protein.

In the case of “GFP-Cdc42 wild type (Cell division control protein 42 homolog) (from UniProt P60953 1-191)”, the binding result is on record as “no binding”.
In the case of “GFP-RhoA wild type (Transforming protein RhoA) (from UniProt P61586 1-193)”, the binding entry is reported as “no binding”.

These data come from paper PMC11264595.
